# Assay results as given in PMC6461442.
# B1: Heh1 WH domain, heh1(735-834) (domain or fragment, UniProt Q03707 735-834)
# chain: IEELVTQTMEKLKFQKIKSMSDPKENAYLSIVQLRDIFLSDIVDLKYKNQLWSEVVKYLEHNNSNIKSNLTEIRGEIMKCWEWIGPMELNEPKDSAENKI
# Molecular target: GST-Chm7 (S. cerevisiae)
# Test: pull-down; Heh1 WH incubated in solution with GST-Chm7, dialysed overnight into binding buffer (50 mM Tris pH 7.4, 150 mM NaCl, 2 mM MgCl2, 2 mM CaCl2, 10% glycerol, 0.5% NP-40, 1 mM DTT), then captured on glutathione beads 1 hr at 4°C, washed thrice; stained SDS-PAGE gel; both purified
binder,measurement,value
B1,binding,no binding

# Results are given in words; binding and its absence hold for the method and conditions named.
